## Results of single-concentration screens

By UniProt entry, the sequences of proteins in these tests, tags left out.
UniProt I6X8D2, whole entry: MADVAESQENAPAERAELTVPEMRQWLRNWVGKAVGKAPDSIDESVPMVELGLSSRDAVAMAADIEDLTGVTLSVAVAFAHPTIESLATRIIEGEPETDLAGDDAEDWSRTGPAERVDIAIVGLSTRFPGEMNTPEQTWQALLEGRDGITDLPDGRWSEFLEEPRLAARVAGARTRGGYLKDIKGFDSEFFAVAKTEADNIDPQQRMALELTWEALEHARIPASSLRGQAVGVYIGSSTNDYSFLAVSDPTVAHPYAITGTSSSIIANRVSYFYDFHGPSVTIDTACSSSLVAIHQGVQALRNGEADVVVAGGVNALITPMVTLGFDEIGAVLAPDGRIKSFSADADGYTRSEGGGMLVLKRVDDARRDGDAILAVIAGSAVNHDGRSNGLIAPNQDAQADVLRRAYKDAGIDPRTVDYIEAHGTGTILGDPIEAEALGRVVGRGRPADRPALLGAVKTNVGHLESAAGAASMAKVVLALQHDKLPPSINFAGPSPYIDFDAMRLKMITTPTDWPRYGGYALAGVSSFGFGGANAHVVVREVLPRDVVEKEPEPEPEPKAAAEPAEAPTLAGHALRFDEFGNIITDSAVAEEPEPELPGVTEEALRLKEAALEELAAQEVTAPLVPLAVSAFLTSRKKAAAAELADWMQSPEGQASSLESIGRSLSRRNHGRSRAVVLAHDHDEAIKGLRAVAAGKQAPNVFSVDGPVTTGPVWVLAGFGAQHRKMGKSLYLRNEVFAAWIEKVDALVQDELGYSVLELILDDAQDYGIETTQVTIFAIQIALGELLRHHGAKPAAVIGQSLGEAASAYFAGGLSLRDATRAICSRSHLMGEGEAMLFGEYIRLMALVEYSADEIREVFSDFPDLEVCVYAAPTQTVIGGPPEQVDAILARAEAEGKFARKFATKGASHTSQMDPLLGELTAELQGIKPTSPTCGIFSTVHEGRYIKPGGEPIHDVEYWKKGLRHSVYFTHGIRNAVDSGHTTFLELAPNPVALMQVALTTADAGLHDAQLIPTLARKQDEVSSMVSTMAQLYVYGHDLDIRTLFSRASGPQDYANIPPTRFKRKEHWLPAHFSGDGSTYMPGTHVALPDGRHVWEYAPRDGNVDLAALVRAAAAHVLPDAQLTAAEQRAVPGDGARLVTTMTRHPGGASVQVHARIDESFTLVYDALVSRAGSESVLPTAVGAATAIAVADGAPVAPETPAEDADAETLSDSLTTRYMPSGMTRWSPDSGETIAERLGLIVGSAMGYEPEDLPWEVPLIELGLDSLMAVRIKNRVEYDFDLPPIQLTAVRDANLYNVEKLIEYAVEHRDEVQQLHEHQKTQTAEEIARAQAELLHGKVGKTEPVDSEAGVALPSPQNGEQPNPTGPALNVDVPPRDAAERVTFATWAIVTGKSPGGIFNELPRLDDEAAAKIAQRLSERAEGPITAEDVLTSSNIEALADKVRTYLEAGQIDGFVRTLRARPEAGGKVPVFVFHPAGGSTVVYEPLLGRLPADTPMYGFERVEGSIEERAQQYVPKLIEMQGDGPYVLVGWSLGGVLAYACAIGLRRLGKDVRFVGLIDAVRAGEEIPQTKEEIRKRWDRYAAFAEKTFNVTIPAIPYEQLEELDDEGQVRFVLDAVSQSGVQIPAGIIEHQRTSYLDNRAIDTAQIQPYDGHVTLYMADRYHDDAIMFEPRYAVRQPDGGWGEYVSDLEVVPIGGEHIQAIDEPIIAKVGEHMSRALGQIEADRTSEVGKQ

The values are deposited in ChEMBL (CHEMBL3988442, “University of Dundee, Small-Polar-MMV Screening Library” (2021)).

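Polyketide synthase Pks13, Mycobacterium tuberculosis (UniProt I6X8D2). Enzyme assay of the thioesterase domain of polyketide synthase 13; the read-out is not stated. Tested at 30 µM. The record gives no direction; the compounds picked for IC50 retests had high values, so higher reads as stronger inhibition. Size under these conditions: about 67,000 compounds, about 300 of them at 50% or above in at least one test.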

Results are given as percent effect. How 0% and 100% were set is not recorded. Most values in the screen are low, and negative values occur. The compounds are a random part of those screened.

| Compound | Percent Effect |
|---|---|
| `Cc1nnc(CN2CCC(c3nc4cc(Cl)ccc4o3)CC2)n1C` | -10.23 |
| `CSCCCN1C[C@H](NC(=O)c2cnn(C)c2)[C@@H](C2CC2)C1` | 2.729 |
| `N#Cc1ccc(CN2CCCC2Cn2cccn2)c(F)c1` (stereo unspecified) | -20.39 |
| `O=C(CN1C=Nc2ccccc2S1(=O)=O)NCCc1cccs1` | -9.46 |
| `O=C1CC(CNc2cncc(Cl)n2)c2ccccc2N1` (stereo unspecified) | -11.96 |
| `O=C(Cn1ccc2c(Cl)cccc21)N1CCCC1` | -25.48 |
| `CC(C)N1CCN(C(=O)Nc2cnc3c(cnn3C(C)C)c2)CC1` | -6.831 |
| `CN1CCN(C2CCN(CCOc3ccccc3)CC2)C1=O` | -15.5 |
| `O=C(Cc1cn2ccsc2n1)N1CCCC(n2cccn2)C1` (stereo unspecified) | -10.16 |
| `Cc1nn(C)c(Cl)c1C1CCCN1C(=O)c1csnn1` (stereo unspecified) | -2.174 |
| `O=C1NCCCCC1SCc1coc(-c2cccc(F)c2)n1` (stereo unspecified) | -44.27 |
| `Cc1noc(CNC(=O)CN(C)c2nc3c(C)ccc(C)c3s2)n1` | -7.794 |
| `CN(C)CCOCc1nnc2n1CCN(Cc1ccco1)CC2` | -14.04 |
| `O=C(C1CCCC1)N1CC[C@]2(O)CCN(Cc3ncccn3)C[C@@H]2C1` | -36.99 |
| `Cc1cccc(C(=O)N2CCCn3c(CN4CCCCC4)nnc3C2)c1` | 3.016 |
| `COCCC1COC2(CCN(C(=O)C3CCC3)CC2)C1` (stereo unspecified) | -23.81 |
| `CC(C)(NCC(=O)NCC(F)(F)F)c1ccc2c(c1)OCCO2` | -4.088 |
| `CN(CCO)Cc1nnc(C2CCN(C(=O)C(C)(C)C)CC2)n1C` | -15.57 |
| `Cn1nc2c(cc1=O)CN(CC1CCCCO1)CC2` (stereo unspecified) | -14.22 |
| `COCc1ccccc1C(=O)NCC(c1c(F)cccc1F)N(C)C` (stereo unspecified) | -27.14 |
| `Cc1cscc1C(=O)NC1CC(=O)N(C(C)C)C1=O` (stereo unspecified) | -5.882 |
| `CCc1[nH]c2c(CNc3cncc(C(=O)N(C)C)n3)cc(C)cc2c1C` | -6.184 |
| `FC(F)(F)c1cccnc1N1CCC(OC2CCOCC2)CC1` | -17.41 |
| `O=c1ccc2c(n1CC1CC1)CCC(NCc1cccs1)C2` (stereo unspecified) | 3.203 |
| `CCCNCC1(O)CCCN(Cc2cccc(C)c2)C1=O` (stereo unspecified) | -3.637 |
| `COc1ccccc1C1(O)CCCN(C(=O)c2ccnn2C(C)C)C1` (stereo unspecified) | 1.689 |
| `CC(C)CCN(C)Cc1ccccc1-c1nc(C(C)C)cc(=O)[nH]1` | -9.44 |
| `CNC(=O)CCC(=O)N1CCOC(c2ccc3cc(OC)ccc3c2)C1` (stereo unspecified) | 2.262 |
| `CN(Cc1ccncc1)C1COC2(CCN(Cc3ccccn3)CC2)C1` (stereo unspecified) | 3.753 |
| `Cc1c(C)n(CC(O)CN2CCCCCC2)c2c(Cl)cccc12` (stereo unspecified) | -11.8 |
| `CCN1CCC(NC(=O)CN2CCCC2Cn2cc(C)cn2)CC1` (stereo unspecified) | 0.1196 |
| `COCCNC(=O)c1cccnc1Oc1ccc(Cl)cc1` | -6.016 |
| `CC(C)(C)c1nnc(CN(Cc2cccs2)CC2CCCO2)o1` (stereo unspecified) | -4.238 |
| `Cn1ccc(C(=O)NC2CCC23CCN(C(=O)c2cnccn2)CC3)c1` (stereo unspecified) | -14.93 |
| `CCN(Cc1cccc2c1OCO2)C(=O)NCc1ccccn1` | -21.8 |
| `Cc1cc(C)n2cc(CN3CCCC3Cn3nc(C)nc3C)nc2n1` (stereo unspecified) | -2.478 |
| `Cc1cc(CNC(=O)CCCN2CCCCC2)n(C)n1` | 17.03 |
| `Cn1c(C(F)(F)F)nn(CCNC(=O)NCc2ccccc2)c1=O` | -13.87 |
| `Cc1nc(C)n(CC2CN(CCCOc3ccccc3C)CCO2)n1` (stereo unspecified) | 2.199 |
| `c1[nH]c(CC2CCCC2)nc1CN1CCCC2(CCOC2)C1` (stereo unspecified) | -41.92 |
| `c1ccc(CN2CCc3c(CNc4nccs4)n[nH]c3C2)nc1` | 4.655 |
| `CC(=O)N1CCCC(Cc2cncc(Br)c2)CC1` (stereo unspecified) | -29.34 |
| `O=C(Cc1ccc(O)c(F)c1)N1CCC2(CCNCC2)CC1` | -0.2038 |
| `COc1cc(CNC(=O)Nc2cc(C(F)(F)F)c[nH]c2=O)ccn1` | 7.383 |
| `CN1[C@H](Cn2cncn2)C[C@@H]2CN(C3CCOCC3)CC[C@@H]21` | -2.244 |
| `CCn1cc(Br)c(C(=O)NCc2ccc(F)cc2)n1` | -7.321 |
| `O=C(NC1CC1)c1cc2c(nc1O)CC(c1cccs1)CC2=O` (stereo unspecified) | -20.53 |
| `Cc1cc(C2CCCN(C(=O)c3ccc(OCC4CC4)nc3)C2)n[nH]1` (stereo unspecified) | -11.84 |

For reference, 3 entries once more:

* O=C1NCCCCC1SCc1coc(-c2cccc(F)c2)n1 (stereo unspecified) | -44.27%
* Cc1cc(C2CCCN(C(=O)c3ccc(OCC4CC4)nc3)C2)n[nH]1 (stereo unspecified) | -11.84%
* Cc1cccc(C(=O)N2CCCn3c(CN4CCCCC4)nnc3C2)c1 | 3.016%